Test results from patent publication EP0002836A1, “Acylhydrocarbylaminoalcanecarboxylic acids, their preparation and their use, and pharmaceutical compositions containing them” (Byk Gulden Lomberg Chemische Fabrik GmbH, priority 1977, dated 1979).

Assays:
[1] = tested on: Gallesekretion narkotisierter Ratten; assay: Bile secretion (choleresis) of anaesthetised rats after intraduodenal administration; format: in vivo; details: LD50 (Maus, i.p.) / ED50 Gallesekretion (Ratte i.d.); for Lfd.Nr. 1 the cited p.o. LD50
From the text: (§1) In Tabelle II werden Untersuchungen der Gallesekretion (Cholerese) von narkotisierten Ratten nach intraduodenaler Applikation (ED50) und die letale Wirkung an der Maus (LD50) nach intraperitonealer Applikation von Vertretern der erfindungsgemäßen Verbindungen sowie der therapeutische Quotient (TQ = LD50/ED50) wiedergegeben.
(§2) Einfluß auf die Pankreas- und Gallesekretion der narkotisierten Ratte Versuchsdurchführung:
(§3) Männliche Sprague-Dawley-Ratten (250 - 300 ^g Körpergewicht) werden mit 1,2 g/kg Urethan i.m. narkotisiert. Dann wird die Bauchhöhle medial geöffnet, der Ductus choledochus kurz oberhalb seiner Mündung in das Duodenum sowie nahe der Leberpforte ligiert, beide Gangabschnitte werden leberwärts katheterisiert.
(§4) Da bei der Ratte alle Pankreaskanäle in den mittleren Abschnitt des Ductus choledochus munden,lassen sich auf diese Weise aus dem distalen (ligierten) Gangabschnitt das Pankreassekret und aus dem proximalen Teil des Ductus choledochus die Galle getrennt ableiten.
(§5) Die sezernierten Mengen an Pankreas- und Gallensaft werden in 30 min. Abständen während 2 Stunden vor bis 3 Stunden nach der intraduodenalen ([…]) Verabreichung der zu prüfenden Verbindungen (verabreichtes Flüssigkeitsvolumen 5 ml/kg) gemessen.
(§6) Die Körpertemperatur der Tiere wird mittels Heizkissen und Bestrahlung auf 36 - 38°C gehalten; die Temperaturkontrolle erfolgt rectal. […]

[2] = tested on: Pankreassekretion narkotisierter Ratten; assay: Pancreatic secretion of anaesthetised rats after intraduodenal administration; format: in vivo; details: LD50 (Maus, i.p.) / ED50 Pankreassekretion (Ratte, i.d.); for Lfd.Nr. 1 the cited p.o. LD50
From the text: as §1, with “I” for “II”, “Pankreassekretion” for “Gallesekretion (Cholerese)”, “(^TQ” for “(TQ”
as §2, §3, §4, §5, §6

| Compound | TQ [LD50/ED50] [1] | TQ [LD50/ED50] [2] |
| --- | --- | --- |
| C#CC1(N(CCCC(=O)O)C(=O)c2ccc(Cl)cc2)CCCCC1 [Beispiel 5] | 32 | 95 |
| CC(C)(C)CC(C)(C)N(CCCC(=O)O)C(=O)c1ccc(F)cc1 [Beispiel 16] |  | ~ 40 |
